Patent publication US20230172899A1, “CANNABINOID COMPOSITIONS” (priority 2020, published 2023)
Some results were stated once for a whole list of compounds, not compound by compound.

System: store-operated calcium entry (SOCE) in THP-1 cells
Assay: SOCE inhibition, combinatory (isobolographic) analysis, THP-1 cells
Type: cell-based, human
Conditions: 10 μM cannabinoid combined with 2.2 μM CBGA
Protocol: Bar graphs shown in FIGS. 10A-10Z and 10BB display SOCE amplitudes calculated from area under the curve (AUC) of the SOCE signals and normalized to SOCE in the presence of gadolinium. Combinatory effects were assessed using an isobolographic analysis approach, where CBGA was paired with another cannabinoid using concentrations of CBGA corresponding to 50%, 40%, 30%, 20%, 10%, and 0% inhibition (as derived from the IC50 curves of FIGS. 9A-9P) and combined with concentrations of the paired cannabinoid, so that each combination would be expected to inhibit 50% of the Ca^2+ signal (e.g., the CBGA concentration causing 50% inhibition was tested alone without the other cannabinoid, the CBGA concentration expected to block 40% of the signal was combined with the concentration of the other cannabinoid expected to inhibit 10%, the CBGA concentration expected to block 30% of the signal was combined with the concentration of the other cannabinoid expected to inhibit 20%, and so on). Simple additivity of cannabinoid pairs would be expected to inhibit the Ca^2+ signal by 50%. All the data in these experiments represent an average of 3 independent runs and the values are graphed as mean values±SEM.

SMILES | SOCE inhibition in combination with CBGA
C=C(C)[C@@H]1CCC(C)=C[C@H]1c1c(O)cc(CCCCC)cc1O [CBD, (1′R,2′R)-5′-methyl-4-pentyl-2′-(prop-1-en-2-yl)-1′,2′,3′,4′-tetrahydro-[1,1′-biphenyl]-2,6-diol] | ≤ 50%
CCCCCc1cc(O)c(C/C=C(\C)CCC=C(C)C)c(O)c1 [CBG, (E)-2-(3,7-dimethylocta-2,6-dien-1-yl)-5-pentylbenzene-1,3-diol] | greater than 50%
CCCc1cc(O)c(C/C=C(\C)CCC=C(C)C)c(O)c1 [CBGV, (E)-2-(3,7-dimethylocta-2,6-dien-1-yl)-5-propylbenzene-1,3-diol] | greater than 50%
CCCCCc1cc(O)c2c(c1)OC(C)(C)c1ccc(C)cc1-2 [CBN, 6,6,9-trimethyl-3-pentyl-6H-benzo[c]chromen-1-ol] | greater than 50%
CCCCCc1cc(O)c2c(c1)OC(C)(C)[C@@H]1CC=C(C)C[C@@H]21 [Δ8-THC, (6aR,10aR)-6,6,9-trimethyl-3-pentyl-6a,7,10,10a-tetrahydro-6H-benzo[c]chromen-1-ol] | ≤ 50%
